Data taken from publication doi:10.1101/2025.10.26.684598.
Results are given in words; binding and its absence hold for the method and conditions named. Binding seen in cells or lysates may run through a third protein. Some binding calls cover weakened binding; strength is not graded here. Tags and fused reporters may be left off the sequences shown.

T1: YokF residues 216-296 with HA2x (TNM-HA) (B. subtilis) (UniProt O32001)
T1 sequence: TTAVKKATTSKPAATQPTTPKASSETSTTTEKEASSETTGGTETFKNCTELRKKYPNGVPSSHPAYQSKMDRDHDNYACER

T2: FlhA-HA (FlhA with HAx2) (B. subtilis) (UniProt P35620)
T2 sequence: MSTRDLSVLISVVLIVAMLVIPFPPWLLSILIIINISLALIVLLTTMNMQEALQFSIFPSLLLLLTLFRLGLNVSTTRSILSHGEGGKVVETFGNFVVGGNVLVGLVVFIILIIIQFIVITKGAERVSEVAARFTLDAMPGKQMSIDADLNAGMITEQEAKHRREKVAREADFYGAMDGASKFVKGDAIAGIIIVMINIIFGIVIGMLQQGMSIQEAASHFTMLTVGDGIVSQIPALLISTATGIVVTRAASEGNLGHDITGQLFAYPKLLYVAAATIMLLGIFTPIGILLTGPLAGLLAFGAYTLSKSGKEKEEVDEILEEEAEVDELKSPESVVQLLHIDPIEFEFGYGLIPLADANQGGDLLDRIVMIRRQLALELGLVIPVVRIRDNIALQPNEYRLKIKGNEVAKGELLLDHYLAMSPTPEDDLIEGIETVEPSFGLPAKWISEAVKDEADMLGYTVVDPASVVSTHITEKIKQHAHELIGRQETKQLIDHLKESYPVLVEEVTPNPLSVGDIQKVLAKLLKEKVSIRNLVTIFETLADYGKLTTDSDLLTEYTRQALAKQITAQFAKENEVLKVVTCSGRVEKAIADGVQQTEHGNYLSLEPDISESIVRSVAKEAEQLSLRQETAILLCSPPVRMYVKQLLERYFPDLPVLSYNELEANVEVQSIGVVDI

B1: YokF residues 1-215 with FLAG2x (TNase-FLAG) (domain or fragment, UniProt O32001 20-215)
chain: CSSNDSEKVSTEKETPQASTDVEKKTEQKESTKEKTADKSKEKDKKELVDVTLDRAVDGDTIKVTYNGNVDTVRYLLIDTPETKKPNSCVQPYGEDASKRNKELVNSGKLQLEFDKGDRRDKYGRLLAYVYVDGKSVQETLLKEGLARVAYVYEPNTKYIDQFKKDEQEAKSEKLSIWSKNGYVTDRGFNGCVKEK
B2: YokF (native, in B. subtilis BSB1) (enzyme, UniProt O32001 20-296)
chain: CSSNDSEKVSTEKETPQASTDVEKKTEQKESTKEKTADKSKEKDKKELVDVTLDRAVDGDTIKVTYNGNVDTVRYLLIDTPETKKPNSCVQPYGEDASKRNKELVNSGKLQLEFDKGDRRDKYGRLLAYVYVDGKSVQETLLKEGLARVAYVYEPNTKYIDQFKKDEQEAKSEKLSIWSKNGYVTDRGFNGCVKEKTTAVKKATTSKPAATQPTTPKASSETSTTTEKEASSETTGGTETFKNCTELRKKYPNGVPSSHPAYQSKMDRDHDNYACER

Assays:
[1] = target: T1, YokF residues 216-296 with HA2x (TNM-HA) (B. subtilis); test: co-IP
[2] = target: T2, FlhA-HA (FlhA with HAx2) (B. subtilis); test: co-IP

Binder | binding [1] | binding [2]
B1 | binds | 
B2 |  | binds
